PubChem BioAssay AID1508597 – Cure First, 2020

- Screen: 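Knock-downs altering ovarian cancer cell survival with or without PARP inhibitor rucaparib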 (primary screen)
- Cell system: human ovarian carcinoma lines grown from tumours: OCI-P5x (papillary serous) and OCI-C5x (clear cell)
- Reagent: siRNA pool against human genes, 1.25 pmol siRNA per well
- Time to read-out: 72 h or 96 h, depending on the cell culture
- Treatment: rucaparib 20 µM (about IC30) or vehicle, present until read-out
- Measured: 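Luminescent ATP-based viability assay read 72 or 96 h after transfection, depending on culture, given as normalised percent viability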
- Scale: viability, normalised: higher = more viable cells remaining
- Call rule: 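Active when normalised viability falls below 80 percent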
- Calls: active = viability under 80%; inactive = viability 80% or more
Here is one part, drawn at random, of about 2,100 deposited reagents. 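Calls flag viability under 80% in either arm, not effects specific to rucaparib; the reference for percent is not stated.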 Not stated in the record: the 100% reference.

no.	gene symbol	rucaparib or vehicle	cell line	technical replicate	viability, normalised (%)	call
1	HDGFL2	Rucaparib	OCI-C5x (clear cell)	1	57.6	active
2	HDGFL2	Rucaparib	OCI-C5x (clear cell)	2	33.6	active
3	HDGFL2	Rucaparib	OCI-C5x (clear cell)	3	44.1	active
4	HDGFL2	Rucaparib	OCI-P5x (serous)	1	63.7	active
5	HDGFL2	Rucaparib	OCI-P5x (serous)	2	58	active
6	HDGFL2	Rucaparib	OCI-P5x (serous)	3	72.7	active
7	HDGFL2	Vehicle	OCI-C5x (clear cell)	1	48.8	active
8	HDGFL2	Vehicle	OCI-C5x (clear cell)	2	28.8	active
9	HDGFL2	Vehicle	OCI-C5x (clear cell)	3	43.6	active
10	HDGFL2	Vehicle	OCI-P5x (serous)	1	62.4	active
11	HDGFL2	Vehicle	OCI-P5x (serous)	2	76.6	active
12	HDGFL2	Vehicle	OCI-P5x (serous)	3	55.2	active
13	MED13	Rucaparib	OCI-C5x (clear cell)	1	49.1	active
14	MED13	Rucaparib	OCI-C5x (clear cell)	2	55.5	active
15	MED13	Rucaparib	OCI-C5x (clear cell)	3	44.5	active
16	MED13	Rucaparib	OCI-P5x (serous)	1	67	active
17	MED13	Rucaparib	OCI-P5x (serous)	2	51.8	active
18	MED13	Rucaparib	OCI-P5x (serous)	3	66.7	active
19	MED13	Vehicle	OCI-C5x (clear cell)	1	70.5	active
20	MED13	Vehicle	OCI-C5x (clear cell)	2	56	active
21	MED13	Vehicle	OCI-C5x (clear cell)	3	84.2	inactive
22	MED13	Vehicle	OCI-P5x (serous)	1	63.1	active
23	MED13	Vehicle	OCI-P5x (serous)	2	73	active
24	MED13	Vehicle	OCI-P5x (serous)	3	70.2	active

A few values from above:
HDGFL2, rucaparib or vehicle Rucaparib, cell line OCI-P5x (serous), technical replicate 2, call: active
MED13, rucaparib or vehicle Rucaparib, cell line OCI-P5x (serous), technical replicate 3, viability, normalised (%) → 66.7
